Assay results reported in the supplement of paper PMC10849652.
The other results are listed elsewhere or left out.

Amino acid sequences for entries named in this document (tags omitted). A change or cut given only in a name is not applied to a line headed by its entry.
UniProt Q6IN84: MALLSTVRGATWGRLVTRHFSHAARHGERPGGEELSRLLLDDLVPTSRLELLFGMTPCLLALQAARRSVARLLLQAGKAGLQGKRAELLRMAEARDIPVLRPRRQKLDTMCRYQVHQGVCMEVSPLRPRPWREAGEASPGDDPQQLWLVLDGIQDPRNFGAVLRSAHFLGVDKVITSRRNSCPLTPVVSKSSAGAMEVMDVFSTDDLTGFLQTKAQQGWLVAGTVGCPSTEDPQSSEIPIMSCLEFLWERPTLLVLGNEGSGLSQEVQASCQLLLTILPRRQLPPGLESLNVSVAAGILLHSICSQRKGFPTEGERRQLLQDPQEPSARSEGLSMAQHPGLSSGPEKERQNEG
UniProt Q9BRT3: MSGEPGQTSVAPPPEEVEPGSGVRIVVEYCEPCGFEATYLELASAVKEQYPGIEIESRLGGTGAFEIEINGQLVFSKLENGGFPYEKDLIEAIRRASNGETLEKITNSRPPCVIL
UniProt Q9H081: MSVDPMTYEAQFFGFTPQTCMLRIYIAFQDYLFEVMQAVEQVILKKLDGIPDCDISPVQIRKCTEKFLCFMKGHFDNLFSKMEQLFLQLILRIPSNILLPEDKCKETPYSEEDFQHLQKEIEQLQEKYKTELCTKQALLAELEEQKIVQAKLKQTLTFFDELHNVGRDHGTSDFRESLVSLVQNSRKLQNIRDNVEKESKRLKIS
UniProt Q99549: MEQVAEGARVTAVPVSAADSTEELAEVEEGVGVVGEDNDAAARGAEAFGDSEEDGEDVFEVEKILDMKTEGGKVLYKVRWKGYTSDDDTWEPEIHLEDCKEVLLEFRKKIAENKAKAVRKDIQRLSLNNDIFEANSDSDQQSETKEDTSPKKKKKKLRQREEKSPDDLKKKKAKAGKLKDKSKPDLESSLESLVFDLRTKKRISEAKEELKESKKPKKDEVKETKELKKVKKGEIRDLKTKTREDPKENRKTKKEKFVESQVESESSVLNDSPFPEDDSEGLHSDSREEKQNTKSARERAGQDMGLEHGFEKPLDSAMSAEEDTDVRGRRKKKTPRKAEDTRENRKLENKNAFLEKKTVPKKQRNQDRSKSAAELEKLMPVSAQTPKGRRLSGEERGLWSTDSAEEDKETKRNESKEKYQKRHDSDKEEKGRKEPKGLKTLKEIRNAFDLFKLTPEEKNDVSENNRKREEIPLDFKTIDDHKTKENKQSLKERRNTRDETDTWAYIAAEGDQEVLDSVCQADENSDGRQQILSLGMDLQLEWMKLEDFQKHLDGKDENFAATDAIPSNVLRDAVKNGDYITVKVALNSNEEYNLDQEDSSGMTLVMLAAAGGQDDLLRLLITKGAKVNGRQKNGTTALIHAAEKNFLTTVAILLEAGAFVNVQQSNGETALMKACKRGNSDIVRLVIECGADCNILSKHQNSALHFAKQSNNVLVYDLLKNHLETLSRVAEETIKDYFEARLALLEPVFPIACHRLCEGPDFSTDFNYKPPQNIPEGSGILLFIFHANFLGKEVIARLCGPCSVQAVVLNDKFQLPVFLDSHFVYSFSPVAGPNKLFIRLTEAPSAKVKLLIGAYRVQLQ
UniProt Q9BPX6: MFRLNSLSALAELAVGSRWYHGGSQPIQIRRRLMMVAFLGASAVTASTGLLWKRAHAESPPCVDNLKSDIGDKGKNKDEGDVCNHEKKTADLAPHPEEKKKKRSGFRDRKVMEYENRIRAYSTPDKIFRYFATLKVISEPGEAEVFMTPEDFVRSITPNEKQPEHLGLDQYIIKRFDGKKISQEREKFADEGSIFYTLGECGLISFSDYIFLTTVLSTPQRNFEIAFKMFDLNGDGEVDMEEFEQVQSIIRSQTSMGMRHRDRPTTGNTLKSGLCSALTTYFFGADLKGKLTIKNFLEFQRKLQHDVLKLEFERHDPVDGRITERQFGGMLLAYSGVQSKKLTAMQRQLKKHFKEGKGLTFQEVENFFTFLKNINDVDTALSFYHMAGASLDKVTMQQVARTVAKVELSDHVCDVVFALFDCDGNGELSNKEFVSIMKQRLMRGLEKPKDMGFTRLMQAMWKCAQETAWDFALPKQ
UniProt Q9BVC4, whole entry, looked up: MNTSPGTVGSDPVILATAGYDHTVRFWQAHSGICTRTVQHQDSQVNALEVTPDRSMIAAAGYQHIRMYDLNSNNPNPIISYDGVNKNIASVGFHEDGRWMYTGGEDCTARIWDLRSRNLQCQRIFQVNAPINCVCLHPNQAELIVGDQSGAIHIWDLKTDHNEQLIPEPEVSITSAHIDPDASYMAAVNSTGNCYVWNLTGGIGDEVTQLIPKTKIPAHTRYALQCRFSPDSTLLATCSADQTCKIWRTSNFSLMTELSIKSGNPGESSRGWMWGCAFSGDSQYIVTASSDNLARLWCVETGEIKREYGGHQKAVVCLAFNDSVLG
UniProt Q8WV92, whole entry, looked up: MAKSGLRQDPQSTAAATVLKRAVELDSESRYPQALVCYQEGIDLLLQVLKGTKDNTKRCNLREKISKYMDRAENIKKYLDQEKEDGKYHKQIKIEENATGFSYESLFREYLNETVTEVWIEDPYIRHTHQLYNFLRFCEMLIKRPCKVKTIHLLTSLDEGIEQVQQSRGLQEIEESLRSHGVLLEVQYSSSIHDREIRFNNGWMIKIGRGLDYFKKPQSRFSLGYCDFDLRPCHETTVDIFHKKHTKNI
UniProt Q7L1V2: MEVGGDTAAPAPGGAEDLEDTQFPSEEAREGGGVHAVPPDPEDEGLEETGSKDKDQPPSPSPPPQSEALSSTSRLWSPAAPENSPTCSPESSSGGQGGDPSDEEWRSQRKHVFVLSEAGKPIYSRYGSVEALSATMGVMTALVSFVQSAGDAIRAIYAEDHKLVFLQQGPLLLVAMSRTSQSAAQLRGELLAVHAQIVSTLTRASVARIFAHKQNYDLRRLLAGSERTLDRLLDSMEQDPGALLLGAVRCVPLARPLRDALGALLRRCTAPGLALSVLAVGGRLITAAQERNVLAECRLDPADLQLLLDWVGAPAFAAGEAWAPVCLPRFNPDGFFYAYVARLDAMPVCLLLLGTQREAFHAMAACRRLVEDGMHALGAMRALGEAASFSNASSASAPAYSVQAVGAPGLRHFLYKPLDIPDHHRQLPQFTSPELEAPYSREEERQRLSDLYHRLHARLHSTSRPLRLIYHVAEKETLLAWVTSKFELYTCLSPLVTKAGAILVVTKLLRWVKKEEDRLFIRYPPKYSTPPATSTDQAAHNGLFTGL
UniProt Q15014, whole entry, looked up: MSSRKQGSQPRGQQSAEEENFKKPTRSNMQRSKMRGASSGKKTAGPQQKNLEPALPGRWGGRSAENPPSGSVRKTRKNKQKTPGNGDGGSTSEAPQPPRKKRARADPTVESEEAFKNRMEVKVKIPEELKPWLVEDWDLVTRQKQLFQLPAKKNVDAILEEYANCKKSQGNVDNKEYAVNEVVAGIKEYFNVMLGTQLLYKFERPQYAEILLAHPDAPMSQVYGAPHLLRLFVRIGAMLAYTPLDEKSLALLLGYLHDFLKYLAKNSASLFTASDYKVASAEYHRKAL
UniProt Q99583: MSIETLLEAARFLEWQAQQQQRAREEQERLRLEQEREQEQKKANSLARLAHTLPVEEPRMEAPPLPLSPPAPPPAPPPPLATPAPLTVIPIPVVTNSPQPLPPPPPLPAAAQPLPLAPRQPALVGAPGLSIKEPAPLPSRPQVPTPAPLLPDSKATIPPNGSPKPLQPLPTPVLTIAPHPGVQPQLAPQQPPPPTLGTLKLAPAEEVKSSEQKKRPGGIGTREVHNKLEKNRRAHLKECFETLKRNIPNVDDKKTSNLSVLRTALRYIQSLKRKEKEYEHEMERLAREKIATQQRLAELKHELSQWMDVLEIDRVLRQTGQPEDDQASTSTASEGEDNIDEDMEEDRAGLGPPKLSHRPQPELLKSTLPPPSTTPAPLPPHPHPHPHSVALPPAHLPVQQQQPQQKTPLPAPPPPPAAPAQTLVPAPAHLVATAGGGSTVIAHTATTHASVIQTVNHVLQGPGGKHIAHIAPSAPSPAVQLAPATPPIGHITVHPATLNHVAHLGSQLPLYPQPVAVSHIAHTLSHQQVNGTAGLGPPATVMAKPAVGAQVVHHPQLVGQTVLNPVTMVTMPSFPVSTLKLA
UniProt Q8IYU8: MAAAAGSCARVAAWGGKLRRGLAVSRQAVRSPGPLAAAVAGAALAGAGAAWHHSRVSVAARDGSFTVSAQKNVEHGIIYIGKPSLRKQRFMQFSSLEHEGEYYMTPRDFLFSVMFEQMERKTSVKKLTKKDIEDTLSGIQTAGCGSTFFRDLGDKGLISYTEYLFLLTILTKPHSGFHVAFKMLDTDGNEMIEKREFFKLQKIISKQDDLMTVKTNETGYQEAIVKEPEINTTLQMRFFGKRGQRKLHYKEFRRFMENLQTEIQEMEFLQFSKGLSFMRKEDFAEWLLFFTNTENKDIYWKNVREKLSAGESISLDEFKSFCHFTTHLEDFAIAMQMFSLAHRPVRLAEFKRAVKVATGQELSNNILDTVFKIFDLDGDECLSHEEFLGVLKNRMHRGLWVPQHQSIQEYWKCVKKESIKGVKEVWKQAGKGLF
UniProt Q9H000: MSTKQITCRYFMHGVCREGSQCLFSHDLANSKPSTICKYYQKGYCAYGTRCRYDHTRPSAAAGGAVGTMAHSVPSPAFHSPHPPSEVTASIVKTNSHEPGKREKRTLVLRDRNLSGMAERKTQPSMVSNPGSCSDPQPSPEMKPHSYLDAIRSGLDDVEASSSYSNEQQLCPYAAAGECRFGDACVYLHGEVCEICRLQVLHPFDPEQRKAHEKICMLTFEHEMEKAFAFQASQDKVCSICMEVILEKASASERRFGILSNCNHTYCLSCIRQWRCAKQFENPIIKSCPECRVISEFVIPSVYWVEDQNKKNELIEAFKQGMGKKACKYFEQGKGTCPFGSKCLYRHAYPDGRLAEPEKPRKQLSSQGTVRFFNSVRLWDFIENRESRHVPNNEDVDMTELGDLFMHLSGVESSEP
UniProt Q7Z3U7: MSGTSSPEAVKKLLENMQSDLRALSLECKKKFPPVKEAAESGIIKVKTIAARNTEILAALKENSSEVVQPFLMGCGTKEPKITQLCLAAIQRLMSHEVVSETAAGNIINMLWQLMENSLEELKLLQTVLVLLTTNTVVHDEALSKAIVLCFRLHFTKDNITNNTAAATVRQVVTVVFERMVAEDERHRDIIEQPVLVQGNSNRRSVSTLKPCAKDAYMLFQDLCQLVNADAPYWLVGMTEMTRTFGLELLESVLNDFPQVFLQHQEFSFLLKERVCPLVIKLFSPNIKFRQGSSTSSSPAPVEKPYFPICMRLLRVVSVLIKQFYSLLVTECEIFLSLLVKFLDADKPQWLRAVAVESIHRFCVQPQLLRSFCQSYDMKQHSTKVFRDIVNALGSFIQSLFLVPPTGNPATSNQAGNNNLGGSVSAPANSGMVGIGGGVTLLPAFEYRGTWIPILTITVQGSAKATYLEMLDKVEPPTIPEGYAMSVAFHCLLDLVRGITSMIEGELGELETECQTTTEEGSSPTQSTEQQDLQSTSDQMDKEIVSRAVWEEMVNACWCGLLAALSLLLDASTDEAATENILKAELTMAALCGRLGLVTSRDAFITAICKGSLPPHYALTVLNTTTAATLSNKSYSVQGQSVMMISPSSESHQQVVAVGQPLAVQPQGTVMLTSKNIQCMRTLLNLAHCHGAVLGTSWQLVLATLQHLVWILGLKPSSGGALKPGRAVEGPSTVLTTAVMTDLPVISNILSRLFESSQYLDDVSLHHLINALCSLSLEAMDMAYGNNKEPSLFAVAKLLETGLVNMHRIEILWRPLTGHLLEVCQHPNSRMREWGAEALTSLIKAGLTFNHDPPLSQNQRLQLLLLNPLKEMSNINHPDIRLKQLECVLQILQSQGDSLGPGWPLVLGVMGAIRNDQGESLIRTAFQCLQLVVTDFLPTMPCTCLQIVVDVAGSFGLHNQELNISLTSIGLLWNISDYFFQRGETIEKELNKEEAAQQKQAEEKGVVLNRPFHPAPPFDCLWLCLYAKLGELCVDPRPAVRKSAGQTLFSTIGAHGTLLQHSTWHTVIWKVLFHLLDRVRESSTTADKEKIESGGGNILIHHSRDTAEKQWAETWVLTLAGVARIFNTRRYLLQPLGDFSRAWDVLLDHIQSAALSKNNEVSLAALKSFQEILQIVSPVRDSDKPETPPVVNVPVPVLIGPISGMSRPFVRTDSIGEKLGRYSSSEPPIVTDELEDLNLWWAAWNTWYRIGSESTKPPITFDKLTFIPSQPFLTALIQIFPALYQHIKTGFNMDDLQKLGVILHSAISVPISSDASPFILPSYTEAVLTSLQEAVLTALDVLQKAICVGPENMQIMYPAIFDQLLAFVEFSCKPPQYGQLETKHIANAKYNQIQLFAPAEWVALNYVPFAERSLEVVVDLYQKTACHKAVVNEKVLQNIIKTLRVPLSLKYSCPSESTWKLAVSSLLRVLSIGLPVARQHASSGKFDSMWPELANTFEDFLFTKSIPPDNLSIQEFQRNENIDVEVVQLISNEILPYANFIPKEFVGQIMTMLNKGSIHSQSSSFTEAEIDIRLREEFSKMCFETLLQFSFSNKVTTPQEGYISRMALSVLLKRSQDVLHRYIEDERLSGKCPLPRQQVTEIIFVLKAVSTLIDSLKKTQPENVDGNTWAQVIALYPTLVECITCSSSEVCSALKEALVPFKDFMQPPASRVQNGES

Legend:
Assay in all cases: log2 fold change, soluble protein after heating vs DMSO (PISA); higher = thermal stabilisation; K562 cells, 10 uM, 30 min; active = over 0.2 and 3.5 SD of the protein, either way, in both replicates (recomputed)
[1] = compound: CS(=O)(=O)c1ccc(-c2cnc(N)c(C(=O)Nc3ccccc3)n2)cc1
How it was run: (§1)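 K562 cells at 2×10^6 cells/mL were treated with 10 μM compound for 30 min. Aliquots were heated for 3 min across 48°C-58°C, pooled, and extracted in PBS with 0.5% NP-40 at 4°C; soluble protein was the supernatant after 21,000xg for 90 min. Soluble protein was quantified by TMTpro 16plex LC-MS/MS with channel sums equalised, and reported as log2 fold change in thermal stability against DMSO controls, with values from duplicates.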

crizotinib = compound: C[C@@H](Oc1cc(-c2cnn(C3CCNCC3)c2)cnc1N)c1c(Cl)ccc(F)c1Cl [crizotinib]
How it was run: as §1

[2] = compound: C[C@@H]1COCCN1C2=NC(=NC(=C2)C3(CC3)S(=O)(=O)C)C4=C5C=CNC5=CC=C4
How it was run: as §1

[3] = compound: C[C@H](C1=CC=C(C=C1)C(=O)NC2=C3C=CNC3=NC=C2)N
How it was run: as §1

duvelisib = compound: C[C@H](Nc1ncnc2nc[nH]c12)c1cc2cccc(Cl)c2c(=O)n1-c1ccccc1 [duvelisib]
How it was run: as §1

tozasertib = compound: Cc1cc(Nc2cc(N3CCN(C)CC3)nc(Sc3ccc(NC(=O)C4CC4)cc3)n2)n[nH]1 [tozasertib]
How it was run: as §1

[4] = compound: Cc1cc(SCc2sc(-c3ccc(C(F)(F)F)cc3)nc2C)ccc1OCC(=O)O
How it was run: as §1

doramapimod = compound: Cc1ccc(-n2nc(C(C)(C)C)cc2NC(=O)Nc2ccc(OCCN3CCOCC3)c3ccccc23)cc1 [doramapimod]
How it was run: as §1

ispinesib = compound: Cc1ccc(C(=O)N(CCCN)[C@@H](c2nc3cc(Cl)ccc3c(=O)n2Cc2ccccc2)C(C)C)cc1 [ispinesib]
How it was run: as §1

bafetinib = compound: Cc1ccc(NC(=O)c2ccc(CN3CC[C@H](N(C)C)C3)c(C(F)(F)F)c2)cc1Nc1nccc(-c2cncnc2)n1 [bafetinib]
How it was run: as §1

nilotinib = compound: Cc1cn(-c2cc(NC(=O)c3ccc(C)c(Nc4nccc(-c5cccnc5)n4)c3)cc(C(F)(F)F)c2)cn1 [nilotinib]
How it was run: as §1

[5] = compound: Cc1nc(Nc2n[nH]c3c2CN(C(=O)N[C@H](CN(C)C)c2ccccc2)C3(C)C)c2sccc2n1
How it was run: as §1

dasatinib = compound: Cc1nc(Nc2ncc(C(=O)Nc3c(C)cccc3Cl)s2)cc(N2CCN(CCO)CC2)n1 [dasatinib]
How it was run: as §1

[6] = compound: Cc1ncc(-c2ccnc(Nc3ccc(S(C)(=O)=O)cc3)n2)n1C(C)C
How it was run: as §1

[7] = compound: Cn1cc(-c2ccc3c(c2)CCN3C(=O)Cc2cccc(C(F)(F)F)c2)c2c(N)ncnc21
How it was run: as §1

[8] = compound: Cn1cc(-c2ccc3nnc(C(F)(F)c4ccc5ncccc5c4)n3n2)cn1
How it was run: as §1

tipifarnib = compound: Cn1cncc1[C@@](N)(c1ccc(Cl)cc1)c1ccc2c(c1)c(-c1cccc(Cl)c1)cc(=O)n2C [tipifarnib]
How it was run: as §1

mubritinib = compound: FC(F)(F)c1ccc(/C=C/c2nc(COc3ccc(CCCCn4ccnn4)cc3)co2)cc1 [mubritinib]
How it was run: as §1

gandotinib = compound: Cc1cc(Nc2cc(CN3CCOCC3)c3nc(C)c(Cc4ccc(Cl)cc4F)n3n2)n[nH]1 [gandotinib]
How it was run: as §1

[9] = compound: Cc1cccc(CC(=O)N2CCc3c2ccc(-c2cn(C)c4ncnc(N)c24)c3F)n1
How it was run: as §1

Measured: log2 fold change

MRM1 (UniProt Q6IN84)
inactive: [1] -0.084 | crizotinib -0.105 | [2] -0.298 | [3] 0.215 | duvelisib 0.009 | tozasertib 0.023 | [4] 0.048 | doramapimod 0.003 | ispinesib -0.04 | bafetinib 0.191 | nilotinib 0.025 | [5] 0.061 | dasatinib 0.172 | [6] -0.044 | [7] -0.272 | [8] 0.009 | tipifarnib 0.151 | mubritinib -0.102

MIEN1 (UniProt Q9BRT3)
inactive: [1] 0.03 | crizotinib 0.152 | [3] -0.193 | gandotinib 0.026 | [4] 0.032 | doramapimod 0.029 | ispinesib 0.235 | bafetinib 0.023 | [9] -0.013 | nilotinib -0.029 | [5] -0.037 | dasatinib -0.041 | [6] -0.08 | [7] 0.08 | [8] 0.139 | tipifarnib 0.083 | mubritinib 0.018
active: [2] 0.314

MIS12 (UniProt Q9H081)
inactive: [1] 0.016 | crizotinib -0.064 | [2] -0.03 | [3] -0.099 | gandotinib -0.012 | [4] 0.009 | doramapimod -0.019 | ispinesib -0.034 | bafetinib -0.05 | [9] 0.017 | nilotinib -0.062 | [5] -0.048 | dasatinib -0.114 | [6] 0.037 | [7] -0.028 | [8] 0.005 | tipifarnib 0.016 | mubritinib 0.071

MPHOSPH8 isoform 2 (UniProt Q99549)
inactive: [1] -0.068 | crizotinib -0.036 | [2] -0.05 | [3] 0.045 | [4] -0.018 | doramapimod 0.059 | ispinesib 0.18 | dasatinib -0.025 | [7] -0.019 | [8] -0.116 | tipifarnib 0.01 | mubritinib 0.031

MRPL33 (UniProt O75394)
inactive: [1] -0.029 | crizotinib -0.099 | [2] 0.064 | [3] 0.183 | duvelisib -0.339 | tozasertib -0.064 | [4] 0.054 | doramapimod 0.116 | ispinesib -0.198 | bafetinib 0.317 | nilotinib -0.128 | [5] 0.214 | dasatinib 0.033 | [6] 0.024 | [7] -0.16 | [8] 0.018 | tipifarnib 0.098 | mubritinib -0.009

MICU1 isoform 3 (UniProt Q9BPX6)
inactive: [1] -0.024 | crizotinib -0.207 | [2] -0.101 | [3] 0.023 | gandotinib -0.128 | [4] 0.021 | doramapimod -0.011 | bafetinib -0.098 | [9] 0.106 | nilotinib -0.037 | [5] -0.012 | dasatinib -0.065 | [6] -0.022 | [7] -0.012 | [8] -0.055 | tipifarnib -0.019 | mubritinib -0.064
active: ispinesib -0.458

MLST8 (UniProt Q9BVC4)
inactive: [1] -0.07 | crizotinib -0.12 | [2] 0.014 | [3] 0.089 | [4] 0.079 | doramapimod 0.042 | bafetinib 0.005 | nilotinib -0.125 | [5] 0.085 | dasatinib -0.152 | [6] -0.059 | [7] 0.028 | tipifarnib -0.109 | mubritinib 0.1

MRPL34 (UniProt Q9BQ48)
inactive: [1] -0.004 | crizotinib -0.045 | [2] 0.077 | [3] 0.179 | gandotinib 0.164 | [4] 0.051 | doramapimod 0.152 | ispinesib -0.284 | bafetinib 0.176 | [9] 0.035 | nilotinib -0.083 | [5] 0.248 | dasatinib 0.065 | [6] -0.064 | [7] -0.142 | [8] -0.048 | tipifarnib 0.058 | mubritinib 0.032

MITD1 (UniProt Q8WV92)
inactive: [1] -0.082 | crizotinib -0.271 | [2] -0.055 | [3] 0.133 | gandotinib -0.068 | [4] -0.147 | doramapimod 0.103 | ispinesib -0.072 | bafetinib -0.217 | [9] -0.006 | nilotinib -0.065 | [5] -0.035 | dasatinib 0.006 | [6] -0.101 | [7] 0.01 | [8] 0.009 | tipifarnib 0.098 | mubritinib -0.108

MON1B (UniProt Q7L1V2)
active: crizotinib -0.342
inactive: [1] 0.006 | [2] 0.069 | [3] -0.001 | gandotinib -0.106 | [4] 0.005 | doramapimod 0.022 | ispinesib -0.102 | bafetinib -0.071 | [9] 0.004 | nilotinib 0.025 | [5] 0.015 | dasatinib -0.099 | [6] -0.048 | [7] 0.038 | [8] 0.012 | tipifarnib -0.011 | mubritinib 0.065

MORF4L2 (UniProt Q15014)
active: [2] -0.275
inactive: [1] -0.085 | crizotinib 0.013 | [3] 0.053 | gandotinib 0.085 | [4] -0.012 | doramapimod 0.035 | ispinesib 0.011 | bafetinib 0.026 | [9] -0.055 | nilotinib 0.009 | [5] 0.01 | dasatinib 0.045 | [6] -0.005 | [7] -0.087 | [8] -0.131 | tipifarnib 0.059 | mubritinib -0.076

MRPL30 isoform 2 (UniProt Q8TCC3)
inactive: [1] 0.072 | crizotinib 0.048 | [2] -0.1 | [3] 0.31 | duvelisib -0.1 | gandotinib 0.187 | tozasertib 0.016 | [4] 0.154 | doramapimod 0.073 | ispinesib -0.158 | bafetinib 0.231 | [9] 0.143 | nilotinib -0.045 | [5] 0.105 | dasatinib -0.067 | [6] -0.038 | [7] -0.11 | [8] 0.003 | tipifarnib 0.07 | mubritinib 0.047

MNT (UniProt Q99583)
inactive: [1] -0.018 | crizotinib 0.16 | [2] 0.036 | [3] -0.025 | gandotinib -0.076 | tozasertib 0.158 | doramapimod -0.001 | ispinesib -0.015 | bafetinib 0.068 | [9] 0.064 | nilotinib 0.032 | [5] 0.087 | [6] 0.301 | [7] -0.318 | [8] 0.008 | tipifarnib -0.195 | mubritinib 0.162

MICU2 (UniProt Q8IYU8)
inactive: [1] 0.014 | crizotinib -0.173 | [2] -0.026 | [3] 0.108 | gandotinib -0.062 | [4] 0.035 | doramapimod -0.009 | ispinesib -0.213 | bafetinib -0.142 | [9] 0.092 | nilotinib -0.052 | [5] -0.067 | dasatinib -0.102 | [6] -0.001 | [7] -0.022 | [8] -0.05 | tipifarnib 0.022 | mubritinib -0.155

MKRN2 (UniProt Q9H000)
inactive: [1] -0.035 | crizotinib -0.094 | [2] -0.077 | [3] 0.117 | gandotinib 0.221 | [4] 0.076 | doramapimod -0.005 | ispinesib -0.161 | bafetinib 0.073 | [9] -0.194 | nilotinib -0.048 | [5] -0.062 | dasatinib -0.088 | [6] 0.066 | [7] -0.284 | [8] -0.099 | tipifarnib -0.01 | mubritinib -0.142

MRPL50 (UniProt Q8N5N7)
inactive: [1] -0.031 | crizotinib 0.133 | [2] 0.045 | [3] -0.045 | gandotinib 0.04 | [4] 0.104 | doramapimod 0.092 | ispinesib 0.199 | bafetinib -0.079 | [9] -0.035 | nilotinib 0.008 | [5] 0.114 | dasatinib 0.183 | [6] -0.064 | [7] 0.022 | [8] 0.117 | tipifarnib -0.163 | mubritinib -0.039

MON2 isoform 5 (UniProt Q7Z3U7)
inactive: [1] 0.044 | crizotinib -0.065 | [2] 0.081 | [3] 0.033 | gandotinib -0.105 | [4] 0.171 | doramapimod 0.077 | ispinesib -0.055 | bafetinib -0.001 | [9] 0.026 | nilotinib -0.053 | [5] -0.012 | dasatinib -0.132 | [6] 0.082 | [7] 0.008 | [8] 0.006 | tipifarnib -0.071 | mubritinib -0.03
